What was measured:
T24 cells = test: Antiproliferative activity, sulforhodamine B assay, T24 bladder cancer cells; format: cell-based, human; settings: GI50 (HaCaT)/GI50 (T24)
Procedure: (§1) In vitro antiproliferative activity of the compounds was determined in cells derived from bladder cancer (T24) and prostate cancer (LNCaP). The cells were incubated in the presence of the compounds for 48 h. The antiproliferative activity was determined using the sulforhodamine B assay. The results were expressed as GI50, which is the drug concentration resulting in a 50% reduction of cellular net growth when compared with the values of untreated control cells. The standard anticancer drug cisplatin was used as a positive control, and furoxan 3 and 11a were also included as ⋅NO donor reference compounds. The results are summarized in Table 2 for the Ugi product 7a, Ugi-Fx (8a) and 8b–g Ugi-furoxan derivatives, and GBB product 10 and 12a–e GBB-furoxan derivatives.
(§2) The T24 cells were grown in McCoy’s 5A (Biological Industries) supplemented with 10% FBS (Capricorn Scientific). The cells were passaged twice per week, and the culture medium was changed with the same frequency. The LNCaP cells were maintained in RPMI media (Biological Industries) supplemented with 10% FBS (Capricorn Scientific) and 10% of its own conditioned medium (complete media). The cells were passaged once per week, and the medium was changed with the same frequency. The HaCaT cells (immortalized human keratinocytes) were cultured in Dulbecco’s modified Eagle medium (Biological Industries) supplemented with 10% FBS (Capricorn Scientific). The cells were passaged twice per week, and the medium was changed with the same frequency. The cell cultures were maintained under a humidified 5% CO2 atmosphere at 37 °C.
(§3) For viability assays, cells were treated with a 0.25% Trypsin–0.05% EDTA solution and plated in 96-well plates in complete medium the day before the experiment. The cells were seeded in a 96-well plate at densities of 8 × 10^3 cells per well for T24 cells, 12.5 × 10^3 cells per well for LNCaP cells, and 10 × 10^3 cells per well for HaCaT cells. The cultures were allowed to attach for 24 h in a humidified 5% CO2 atmosphere at 37 °C. Then, the cells were treated with increasing concentrations of the compounds (0.4–100.0 µM) prepared in complete medium using stock solutions in DMSO and were kept for 48 h in a CO2 incubator. Wells with only media or 0.5% DMSO were added as controls. The antiproliferative activity of the compounds was assayed using the SRB method in at least three independent experiments.

LNCaP cells = test: Antiproliferative activity, sulforhodamine B assay, LNCaP prostate cancer cells; format: cell-based, human; settings: GI50 (HaCaT)/GI50 (LNCaP)
Procedure: as §1, §2, §3

[1] = NO release in physiological solution, Griess assay; settings: 100 μM, pH 7.4 PBS/MeOH 50/50, 37 °C; for % NO2– (mol/mol) with L-Cys, 1h incubation / % NO2– (mol/mol) with L-Cys, 3 h incubation: 0.5 mM L-cysteine

SMILES | SI T24 (T24 cells) | SI LNCaP (LNCaP cells) | % NO2– (mol/mol) with L-Cys, 1h incubation ([1]; 1 h) | % NO2– (mol/mol) with L-Cys, 3 h incubation [1] | % NO2– (mol/mol) without L-Cys, 1h incubation ([1]; 1 h, no L-cysteine)
Cc1ccc(N(C(=O)c2ccccc2Oc2no[n+]([O-])c2S(=O)(=O)c2ccccc2)C(C(=O)NC(C)(C)C)c2ccccc2)cc1 (stereo not drawn) [8b, N-[1-(tert-butylaminocarbonyl)-1-phenylmethyl]-N-(4-methylphenyl)-2-[3-(phenylsulfonyl)-[1,2,5]oxadiazol-4-yl N2-oxide]oxyphenylcarboxamide] | 2.1 | 0.3 | 37.07 (±1.59) % (mol/mol) | 44.23 (± 2.81) % (mol/mol) | –
Cc1ccc(N(CC(=O)NC(C)(C)C)C(=O)c2cccc(Oc3no[n+]([O-])c3S(=O)(=O)c3ccccc3)c2)cc1 [8d, N-(1-(tert-butylaminocarbonyl)methyl)-N-(4-methylphenyl)-3-[3-(phenylsulfonyl)-[1,2,5]oxadiazol-4-yl N2-oxide]oxy phenylcarboxamide] | 4.8 | 0.5 | 27.89 (±1.84) % (mol/mol) | 39.93 (± 2.31) % (mol/mol) | –
Cc1ccc(N(C(=O)c2cccc(Oc3no[n+]([O-])c3S(=O)(=O)c3ccccc3)c2)C(C(=O)NC(C)(C)C)c2ccccc2)cc1 (stereo not drawn) [Ugi-Fx (8a), N-[1-(tert-butylaminocarbonyl)-1-phenylmethyl]-N-(4-methylphenyl)-3-[3-(phenylsulfonyl)-[1,2,5]oxadiazol-4-yl N2-oxide]oxyphenylcarboxamide] | 14.5 | 0.5 | 38.45 (±1.14) % (mol/mol) | 43.88 (± 1.96) % (mol/mol) | –
CC(C)(C)Nc1c(-c2ccc(Oc3no[n+]([O-])c3S(=O)(=O)c3ccccc3)cc2)nc2ccccn12 [12c, 4-(4-(3-(tert-butylamino)imidazo[1,2-a]pyridin-2-yl)phenoxy)-3-(phenylsulfonyl)-1,2,5-oxadiazole 2-oxide] | 1.7 | 0.2 | 19.02 (±1.12) % (mol/mol) | 24.10 (± 2.43) % (mol/mol) | –
CC(C)(C)Nc1c(-c2cccc(Oc3no[n+]([O-])c3S(=O)(=O)c3ccccc3)c2)nc2ccccn12 [12a, 4-(3-(3-(tert-butylamino)imidazo[1,2-a]pyridin-2-yl)phenoxy)-3-(phenylsulfonyl)-1,2,5-oxadiazole 2-oxide] | 4.2 | 0.3 | 17.22 (±1.18) % (mol/mol) | 22.025 (± 1.26) % (mol/mol) | –
CC(=O)N[C@@H](C(=O)O)C(C)(C)SN=O (racemic) [SNAP, reference compound] | – | – | 18.18 (± 1.30) % (mol/mol) | 20.11 (± 2.21) % (mol/mol) | –
O=Cc1cccc(Oc2no[n+]([O-])c2S(=O)(=O)c2ccccc2)c1 [11a, reference compound] | 1.1 | 0.3 | 19.84 (± 1.35) % (mol/mol) | 20.02 (± 0.95) % (mol/mol) | –
Cc1ccc(N(C(=O)c2ccc(Oc3no[n+]([O-])c3S(=O)(=O)c3ccccc3)cc2)C(C(=O)NC(C)(C)C)c2ccccc2)cc1 (stereo not drawn) [8c, N-[1-(tert-butylaminocarbonyl)-1-phenylmethyl]-N-(4-methylphenyl)-4-[3-(phenylsulfonyl)-[1,2,5]oxadiazol-4-yl N2-oxide]oxyphenylcarboxamide] | 2.1 | 0.2 | 33.40 (±2.32) % (mol/mol) | 36.79 (± 3.26) % (mol/mol) | –
CCCCN(CC(=O)NC(C)(C)C)C(=O)c1cccc(Oc2no[n+]([O-])c2S(=O)(=O)c2ccccc2)c1 [8f, N-(1-(tert-butylaminocarbonyl)methyl)-N-(butyl)-3-[3-(phenylsulfonyl)-[1,2,5]oxadiazol-4-yl N2-oxide]oxyphenylcarboxamide] | – | 0.4 | 32.65 (±1.00) % (mol/mol) | 39.79 (± 2.68) % (mol/mol) | –
CC(C)(C)Nc1c(-c2cccc(Oc3no[n+]([O-])c3S(=O)(=O)c3ccccc3)c2)nc2cnccn12 [12d, 4-(3-(3-(tert-butylamino)imidazo[1,2-a]pyrazin-2-yl)phenoxy)-3-(phenylsulfonyl)-1,2,5-oxadiazole 2-oxide] | 3.6 | 1.2 | 16.59 (±1.36) % (mol/mol) | 19.07 (± 1.87) % (mol/mol) | –
CC(C)(C)Nc1c(-c2cccc(O)c2)nc2ccccn12 [compound 10, N-tert-Butyl-2-(3-hydroxyphenyl)imidazo[1,2-a]pyridin-3-amine] | – | – | 0.83 (± 0.56) % (mol/mol) | 2.76 (± 1.45) % (mol/mol) | –
CCCCN(C(=O)c1cccc(Oc2no[n+]([O-])c2S(=O)(=O)c2ccccc2)c1)C(C(=O)NC(C)(C)C)c1ccccc1 (stereo not drawn) [8e, N-(1-(tert-butylaminocarbonyl)-1-phenylmethyl)-N-(butyl)-3-[3-(phenylsulfonyl)-[1,2,5]oxadiazol-4-yl N2-oxide]oxyphenylcarboxamide] | – | 0.5 | 34.62 (±1.86) % (mol/mol) | 38.43 (± 1.57) % (mol/mol) | –
CC(C)(C)Nc1c(-c2ccccc2Oc2no[n+]([O-])c2S(=O)(=O)c2ccccc2)nc2ccccn12 [12b, 4-(2-(3-(tert-butylamino)imidazo[1,2-a]pyridin-2-yl)phenoxy)-3-(phenylsulfonyl)-1,2,5-oxadiazole 2-oxide] | 3.7 | 0.4 | 30.38 (±1.66) % (mol/mol) | 35.97 (± 1.55) % (mol/mol) | –
CC(C)(C)Nc1c(-c2cccc(Oc3no[n+]([O-])c3S(=O)(=O)c3ccccc3)c2)nc2sccn12 [12e, 4-(3-(5-(tert-butylamino)imidazo[2,1-b]thiazol-6-yl)phenoxy)-3-(phenylsulfonyl)-1,2,5-oxadiazole 2-oxide] | 10.8 | – | 13.50 (±1.14) % (mol/mol) | 16.31 (± 1.19) % (mol/mol) | –
Cc1ccc(N(C(=O)c2ccccc2)C(C(=O)NC(C)(C)C)c2cccc(Oc3no[n+]([O-])c3S(=O)(=O)c3ccccc3)c2)cc1 (stereo not drawn) [8g, N-(1-(tert-butylaminocarbonyl)-1-3-[3-(phenylsulfonyl)-[1,2,5]oxadiazol-4-yl N2-oxide]oxyphenylmethyl)-N-(4-methylphenyl)-phenylcarboxamide] | 2.9 | 0.1 | 35.92 (±1.45) % (mol/mol) | 40.51 (± 3.08) % (mol/mol) | –
O=S(=O)(c1ccccc1)c1no[n+]([O-])c1S(=O)(=O)c1ccccc1 [compound 2, 3,4-bis(phenylsulfonyl)furoxan, reference compound] | – | – | 37.71 (± 1.16) % (mol/mol) | 39.93 (± 2.19) % (mol/mol) | 0.63 (± 0.80) % (mol/mol)
N.N.[Cl][Pt][Cl] [Cisplatin, cisplatin, reference compound] | 0.8 | 0.1 | – | – | –
Cc1ccc(N(C(=O)c2cccc(O)c2)C(C(=O)NC(C)(C)C)c2ccccc2)cc1 (stereo not drawn) [7a, N-(1-(tert-butylaminocarbonyl)-1-phenylmethyl)-N-(4-methylphenyl)-3-hydroxyphenyl carboxamide] | – | – | 0.71 (± 0.39) % (mol/mol) | 2.56 (± 1.77) % (mol/mol) | –

From PMC8955377, “Greener Synthesis of Antiproliferative Furoxans via Multicomponent Reactions” (Molecules, 2022)
